# Test results published in PubChem BioAssay AID493014 (National Center for Advancing Translational Sciences (NCATS), 2011).
# Some of the results follow. The main result of the screen is listed elsewhere. These columns were measured beside it and carry no call. The list favours compounds with an active or inconclusive main result. Words in brackets tell the shape of the fitted curve; partial curves, single points and poor fits give uncertain potencies.
# Assay: qHTS Assay to Find Inhibitors of Chronic Active B-Cell Receptor Signaling
# Details: ABC-DLBCL IkBa-CBG/CBR reporter, luminescence ratio (green luciferase fused to IkBa over red control in TMD8 lymphoma cells), 4 h
# Outline: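 TMD8 ABC-DLBCL cells carrying doxycycline-inducible green luciferase fused to IkappaBalpha plus unfused red luciferase were exposed to compounds (up to 46 uM) for 4 hrs at 37C. Activity came from the overlap-corrected green/red luminescence ratio.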
# [1] = measured here: CBR red luminescence, cell number
SMILES,AC50 [1],AC50 (measured here: IkBa-CBG green luminescence)
COc1ccc(OCCOC(=O)c2ccc(-n3cnnn3)cc2)cc1,"7.31 µM [falling, single point]",–
COc1ccc(OC)c(NC(=O)CSc2nnc(CNC(=O)COc3ccc(Cl)cc3)o2)c1,"35.5 µM [falling, single point]",–
Cc1cc2nc(N3C(=O)CNC3=S)sc2cc1C,"17.8 µM [falling, single point]",–
COc1cc2cc(CN(Cc3cccnc3)C(=O)NCc3ccccc3)c(=O)[nH]c2cc1OC,"0.58 µM [rising, partial curve, poor fit]",–
Cc1c(C(=O)Nc2cccc(S(=O)(=O)N3CCOCC3)c2)oc2ccc(Br)cc12,"0.731 µM [rising, partial curve, poor fit]",–
O=c1cccccc1NN=C1CCCCCC1,"0.631 µM [rising, partial curve, poor fit]",–
CCN(CC)C(=O)c1[nH]cnc1C(=O)Nc1cccc(Cl)c1,"4.11 µM [rising, partial curve]",–
Cc1nc(C)c(-c2ccc(SCC(=O)Nc3cccc(Cl)c3C)nn2)s1,"20 µM [falling, partial curve, poor fit]",–
O=C1CCCC(=O)N1c1ccc(O)cc1,"14.1 µM [rising, partial curve, poor fit]",–
O=[N+]([O-])c1cccc(-c2nnc(C3CC3)o2)c1,"35.5 µM [rising, single point]",–
CCC(=O)NC(=S)N1CCN(c2ccc([N+](=O)[O-])cc2Cl)CC1,"0.0891 µM [falling, full curve, poor fit]",–
Cc1ccc2nc(-c3cccc(NC(=O)c4ccco4)c3)[nH]c2c1,"0.731 µM [falling, partial curve, poor fit]",–
Cc1ccc2[nH]c(=O)c(CN(CCCN3CCOCC3)C(=O)Nc3ccc(Cl)cc3)cc2c1,"10 µM [rising, partial curve]",–
Clc1ccc(CSc2nnc(-c3cccnc3)n2Cc2ccco2)c(Cl)c1,"35.5 µM [falling, partial curve, poor fit]",–
Cc1cc(C)c(C)c(OCC(=O)O/N=C(\N)c2ccncc2)c1,"0.126 µM [rising, full curve, poor fit]",–
CN(C)S(=O)(=O)Oc1ccc(C(=O)Nc2cccc(Cl)c2)cc1,"12.6 µM [falling, partial curve]",–
Cc1ccc(OCC(=O)Nc2ccc(N3CCN(C(=O)c4ccco4)CC3)cc2)c(C)c1,"35.5 µM [falling, partial curve, poor fit]",–
O=C(Nc1cc(F)cc(F)c1)c1ccc(NCCCN2CCCCCC2)c([N+](=O)[O-])c1,"22.4 µM [falling, partial curve, poor fit]",–
Cc1ccc(C(=O)N/N=C/c2c(O)ccc3ccccc23)cn1,"2.82 µM [falling, full curve, poor fit]",–
COc1cc(NC(=O)c2c(F)cccc2F)nc(OC)n1,"10 µM [falling, partial curve, poor fit]",–
CCOc1ccc(NCc2nnc(SCc3ccccc3Cl)n2-c2ccccc2)cc1,"2.82 µM [falling, single point]",–

# 12 structures from above, sorted by formula weight, largest number first:
SMILES,AC50 [1],AC50 (measured here: IkBa-CBG green luminescence)
Cc1c(C(=O)Nc2cccc(S(=O)(=O)N3CCOCC3)c2)oc2ccc(Br)cc12,"0.731 µM [rising, partial curve, poor fit]",–
Cc1ccc2[nH]c(=O)c(CN(CCCN3CCOCC3)C(=O)Nc3ccc(Cl)cc3)cc2c1,"10 µM [rising, partial curve]",–
Cc1ccc(OCC(=O)Nc2ccc(N3CCN(C(=O)c4ccco4)CC3)cc2)c(C)c1,"35.5 µM [falling, partial curve, poor fit]",–
O=C(Nc1cc(F)cc(F)c1)c1ccc(NCCCN2CCCCCC2)c([N+](=O)[O-])c1,"22.4 µM [falling, partial curve, poor fit]",–
Clc1ccc(CSc2nnc(-c3cccnc3)n2Cc2ccco2)c(Cl)c1,"35.5 µM [falling, partial curve, poor fit]",–
Cc1nc(C)c(-c2ccc(SCC(=O)Nc3cccc(Cl)c3C)nn2)s1,"20 µM [falling, partial curve, poor fit]",–
CN(C)S(=O)(=O)Oc1ccc(C(=O)Nc2cccc(Cl)c2)cc1,"12.6 µM [falling, partial curve]",–
CCN(CC)C(=O)c1[nH]cnc1C(=O)Nc1cccc(Cl)c1,"4.11 µM [rising, partial curve]",–
Cc1ccc2nc(-c3cccc(NC(=O)c4ccco4)c3)[nH]c2c1,"0.731 µM [falling, partial curve, poor fit]",–
Cc1cc2nc(N3C(=O)CNC3=S)sc2cc1C,"17.8 µM [falling, single point]",–
O=[N+]([O-])c1cccc(-c2nnc(C3CC3)o2)c1,"35.5 µM [rising, single point]",–
O=C1CCCC(=O)N1c1ccc(O)cc1,"14.1 µM [rising, partial curve, poor fit]",–

# Carrying on:

SMILES,AC50 [1],AC50 (measured here: IkBa-CBG green luminescence)
CC1=C(C(=O)Nc2ccc(C)cc2C)C(c2cccc(Cl)c2)n2nc(C(=O)OC(C)C)nc2N1 (stereo unspecified),"7.31 µM [rising, partial curve, poor fit]",–
Cc1sc2nc(CN3CCOCC3)nc(Oc3ccc(NC(=O)c4ccco4)cc3)c2c1C,"31.6 µM [falling, single point]",–
CCOc1ccccc1N1CCN(C2=C(NS(=O)(=O)c3cccs3)C(=O)c3ccccc3C2=O)CC1,"14.6 µM [rising, partial curve, poor fit]",–
O=c1[nH]c(SCC2CCCCO2)nc2ccccc12 (stereo unspecified),"11.2 µM [falling, partial curve, poor fit]",–
CC(C)CC(=O)NS(=O)(=O)c1ccc(NC(=O)c2ccco2)cc1,"3.55 µM [rising, single point]",–
C#CCNC(=O)C1=C[C@@H](c2ccc(C(F)(F)F)cc2)C[C@@H](OCCCCO)O1,"3.16 µM [rising, partial curve, poor fit]",–
CN(CC(=O)Nc1ccccc1Cl)C(=O)COC(=O)c1ccccc1[N+](=O)[O-],"9.2 µM [rising, partial curve]",–
Cc1cc(C(=O)CSc2nn3c(=O)c(C(C)(C)C)nnc3s2)c(C)n1C1CC1,"35.5 µM [falling, single point]",–
Fc1ccccc1CSc1ncnc2c1oc1ccccc12,"8.91 µM [rising, partial curve, poor fit]",–
CCc1cc(C(=O)OC)c(NC(=O)CCC(=O)O)s1,"18.4 µM [rising, single point]",–
CN(C)S(=O)(=O)c1ccc(C(=O)Nc2nc3ccccc3[nH]2)cc1,–,"2.82 µM [rising, full curve, poor fit]"
O=C1Nc2cc(C(F)(F)F)ccc2N2CCCCC12 (stereo unspecified),"35.5 µM [rising, single point]",–
CNC(=S)N=Nc1c(O)[nH]c2ccccc12,"29.1 µM [rising, single point]",–
O=C(NNC(=O)c1cccs1)c1ccc(Cl)cc1,"18.4 µM [falling, partial curve]",–
Clc1cccc(CN2CCN(c3ncccn3)CC2)c1Cl,"12.6 µM [rising, partial curve]",–
CCOc1c(Nc2cccc(Cl)c2)c(=O)c1=O,"35.5 µM [falling, single point]",–
Cc1ccc(C(=O)Nc2nccc(-c3cccs3)n2)cc1,"12.6 µM [falling, partial curve]",–
O=C(/C=C/c1ccco1)OCC(=O)c1cccc([N+](=O)[O-])c1,"14.1 µM [rising, partial curve, poor fit]",–
C=CCn1c(SCC(=O)Nc2nc3ccccc3s2)nnc1-c1ccccc1O,"18.4 µM [falling, single point]",–
C=CCSc1ncccc1C(=O)NCc1ccc(C)cc1,"7.94 µM [falling, partial curve, poor fit]",–
